Laboratory results reported in PMC11335208.
These are yes or no findings as the source states them, for the method shown. Binding seen in cells or lysates may run through a third protein. Some binding calls cover weakened binding; strength is not graded here.

Sequences of proteins named here, by UniProt entry; tags and fusion partners are left off.
UniProt Q8NFU7: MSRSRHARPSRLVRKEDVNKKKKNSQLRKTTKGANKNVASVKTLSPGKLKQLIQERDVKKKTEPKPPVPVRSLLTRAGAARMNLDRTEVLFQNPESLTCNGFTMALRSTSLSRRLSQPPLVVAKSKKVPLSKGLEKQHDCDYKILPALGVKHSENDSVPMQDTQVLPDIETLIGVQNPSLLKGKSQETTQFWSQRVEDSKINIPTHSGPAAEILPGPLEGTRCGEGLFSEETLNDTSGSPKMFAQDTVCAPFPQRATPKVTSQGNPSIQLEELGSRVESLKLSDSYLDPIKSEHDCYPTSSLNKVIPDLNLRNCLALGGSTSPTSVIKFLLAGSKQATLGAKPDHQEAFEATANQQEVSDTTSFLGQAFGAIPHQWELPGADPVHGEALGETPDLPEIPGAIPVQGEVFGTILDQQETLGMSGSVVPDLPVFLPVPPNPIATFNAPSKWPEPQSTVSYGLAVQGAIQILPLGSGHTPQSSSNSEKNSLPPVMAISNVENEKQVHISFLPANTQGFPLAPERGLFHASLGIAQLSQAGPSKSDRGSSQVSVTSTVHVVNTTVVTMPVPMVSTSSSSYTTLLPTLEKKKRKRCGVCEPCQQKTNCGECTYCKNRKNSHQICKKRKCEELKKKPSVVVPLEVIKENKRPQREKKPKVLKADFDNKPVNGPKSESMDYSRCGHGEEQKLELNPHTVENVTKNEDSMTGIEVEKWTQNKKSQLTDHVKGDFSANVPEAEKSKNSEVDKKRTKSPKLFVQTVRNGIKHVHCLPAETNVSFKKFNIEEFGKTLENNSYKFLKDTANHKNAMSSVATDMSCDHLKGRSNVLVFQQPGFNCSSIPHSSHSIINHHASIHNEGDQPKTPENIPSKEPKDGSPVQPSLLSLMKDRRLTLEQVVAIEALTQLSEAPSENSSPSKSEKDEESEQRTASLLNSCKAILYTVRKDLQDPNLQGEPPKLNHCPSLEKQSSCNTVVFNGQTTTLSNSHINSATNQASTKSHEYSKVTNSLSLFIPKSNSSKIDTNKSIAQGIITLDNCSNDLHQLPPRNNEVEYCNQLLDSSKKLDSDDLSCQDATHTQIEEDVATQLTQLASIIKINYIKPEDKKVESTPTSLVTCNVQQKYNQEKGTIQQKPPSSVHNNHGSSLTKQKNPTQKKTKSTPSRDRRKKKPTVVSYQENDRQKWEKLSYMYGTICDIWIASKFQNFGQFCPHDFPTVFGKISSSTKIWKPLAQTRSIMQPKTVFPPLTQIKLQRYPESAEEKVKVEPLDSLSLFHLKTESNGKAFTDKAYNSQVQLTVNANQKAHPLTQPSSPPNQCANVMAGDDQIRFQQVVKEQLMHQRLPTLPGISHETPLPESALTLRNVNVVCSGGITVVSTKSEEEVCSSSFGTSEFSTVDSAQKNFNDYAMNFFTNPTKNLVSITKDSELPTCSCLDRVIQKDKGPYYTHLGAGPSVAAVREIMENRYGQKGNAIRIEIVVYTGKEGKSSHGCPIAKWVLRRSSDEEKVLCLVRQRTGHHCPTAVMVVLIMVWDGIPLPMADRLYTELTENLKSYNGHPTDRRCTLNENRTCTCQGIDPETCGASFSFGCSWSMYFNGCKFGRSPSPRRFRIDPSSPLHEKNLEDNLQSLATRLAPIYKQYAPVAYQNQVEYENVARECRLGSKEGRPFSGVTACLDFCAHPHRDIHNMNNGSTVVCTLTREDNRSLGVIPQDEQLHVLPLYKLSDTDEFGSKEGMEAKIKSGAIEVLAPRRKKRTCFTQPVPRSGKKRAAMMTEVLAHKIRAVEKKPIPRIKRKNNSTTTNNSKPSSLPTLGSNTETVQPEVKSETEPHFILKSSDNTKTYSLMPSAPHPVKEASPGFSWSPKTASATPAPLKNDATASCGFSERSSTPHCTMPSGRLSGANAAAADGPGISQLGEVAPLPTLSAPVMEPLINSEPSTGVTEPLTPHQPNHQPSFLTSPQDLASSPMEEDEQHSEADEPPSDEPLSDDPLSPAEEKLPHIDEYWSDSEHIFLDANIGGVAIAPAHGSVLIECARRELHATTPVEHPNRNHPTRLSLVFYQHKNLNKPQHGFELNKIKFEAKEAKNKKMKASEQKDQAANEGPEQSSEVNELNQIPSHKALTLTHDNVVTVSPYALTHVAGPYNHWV
UniProt P46937: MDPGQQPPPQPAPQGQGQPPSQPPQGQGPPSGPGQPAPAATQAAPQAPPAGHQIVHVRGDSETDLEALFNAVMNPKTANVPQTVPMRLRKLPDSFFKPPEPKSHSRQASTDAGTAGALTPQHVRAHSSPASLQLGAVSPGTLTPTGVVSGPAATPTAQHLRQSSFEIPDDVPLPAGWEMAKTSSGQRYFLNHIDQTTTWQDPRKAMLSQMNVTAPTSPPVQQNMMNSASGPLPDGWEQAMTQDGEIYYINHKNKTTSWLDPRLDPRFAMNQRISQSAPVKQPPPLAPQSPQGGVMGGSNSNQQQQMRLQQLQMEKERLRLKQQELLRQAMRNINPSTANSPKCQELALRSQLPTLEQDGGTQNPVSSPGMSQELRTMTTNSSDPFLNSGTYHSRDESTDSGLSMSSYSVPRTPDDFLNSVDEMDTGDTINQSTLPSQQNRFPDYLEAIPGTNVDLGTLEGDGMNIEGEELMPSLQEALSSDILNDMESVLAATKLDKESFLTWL

Biological target: endogenous TET1 (Ten-eleven translocation protein 1) (human (endogenous in Huh-7)) (UniProt Q8NFU7)
Experiment: co-IP; immunoprecipitation of endogenous proteins from nuclear extracts of sorafenib-resistant Huh-7 cells; IP of YAP1 and, in turn, IP of TET1

binding: binds
Substance: endogenous YAP1 (Yes-associated protein 1) (from UniProt P46937 1-504)
